# Test results reported in PubChem BioAssay AID504834 (National Center for Advancing Translational Sciences (NCATS), 2011).
# Screen size: about 320,000 compounds; about 22,000 (6.9%) were called active. Inconclusive results, whose numbers are uncertain, are shown with a selection of clear calls. Calls follow the shape of the dose curve; as a rule, active = well fitted inhibition curve with a large enough effect; inconclusive = small, poorly fitted or top-dose-only effect, or another doubt; inactive = no such curve, though single readings can be large or run the other way. Potencies of inconclusive entries are doubtful fits and often do not repeat.
# Assay: Primary qHTS for delayed death inhibitors of the malarial parasite plastid, 96 hour incubation
# Details: P. falciparum luciferase reporter growth; series mostly up to 28.7 µM
# Method in brief: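 P. falciparum expressing integrated firefly luciferase grown in erythrocytes (2% hematocrit, 0.05% parasitemia final) with compounds for 96 hours at 37 C, 5% CO2. Growth inhibition read as loss of luminescence after adding luciferase detection reagent.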
# Potency is read from the fitted curve at half-maximal effect.
row,Compound,Potency
1,CCOC(=O)c1nnn(-c2ccc([N+](=O)[O-])cc2[N+](=O)[O-])c1C,inactive
2,Cc1cc(Cn2nc(C(=O)NCc3cccc(Br)c3)cc2-c2ccccc2)on1,"inconclusive: 11.7 µM [inhibitor, single point]"
3,O=C(N/N=C/c1ccncc1)c1ccccc1OCc1ccc(Br)cc1,active: 1.85 µM
4,CCOc1ccc(NC(=O)CN(c2ccc(C)cc2)S(=O)(=O)c2c(C)nn(C)c2C)cc1,"inconclusive: 13.1 µM [inhibitor, single point]"
5,CNc1ccccc1C(C)(C)c1cc(-c2ccc(F)cc2)no1,active: 8.28 µM
6,O=C(CCCC(=O)c1ccccc1)Nc1ccc(O)cc1,active: 10.4 µM
7,O=c1[nH]c(=S)c2ncn(-c3ccccc3)c2[nH]1,"inconclusive: 2.33 µM [inhibitor, partial curve, poor fit]"
8,Nc1ccc(S(=O)(=O)c2cccc(N)c2)cc1,"inconclusive: 0.0033 µM [inhibitor, full curve, poor fit]"
9,Nc1nc(-c2ccc(Cl)cc2)nn1C(=O)c1cccnc1,inactive
10,CCOC(=O)N1CCN(c2ccc3nnnn3n2)CC1,active: 2.08 µM
11,Cc1ccc(SCC(=O)c2cc(C)c(O)c(C)c2)cc1,"inconclusive: 18.5 µM [inhibitor, single point]"
12,CCCCc1nnc(NC(=O)c2ccccc2OCc2c(C)noc2C)s1,active: 0.928 µM
13,Cc1ccc(NC(=O)CSc2nn(-c3ccc(Cl)cc3)c(=S)s2)cc1S(=O)(=O)N(C)C,"inconclusive: 14.7 µM [inhibitor, partial curve, poor fit]"
14,O=C(COc1coc(CN2CCN(c3ccccc3)CC2)cc1=O)Nc1cccc(F)c1,"inconclusive: 1.31 µM [inhibitor, full curve]"
15,O=C(NCc1ccco1)/C(=C/c1ccco1)NC(=O)c1ccccc1,inactive
16,CC1(C)OCC(C2CC(c3ccccc3)NS(=O)(=O)O2)O1 (stereo not drawn),inactive
17,Cn1cc([N+](=O)[O-])c(C(=O)N(Cc2ccccc2)Cc2ccccc2)n1,inactive
18,Cc1ccc(N2CC(NS(=O)(=O)c3cc(F)ccc3F)CC2=O)cc1C (stereo not drawn),"inconclusive: 0.0828 µM [inhibitor, full curve, poor fit]"
19,CC(NC(=O)COc1ccccc1-c1ccccc1)c1ccccc1 (stereo not drawn),"inconclusive: 4.15 µM [inhibitor, partial curve, poor fit]"
20,Cc1ccc(C)c(S(=O)(=O)NCC(=O)N2CCCC2)c1,"inconclusive: 11.7 µM [inhibitor, single point]"
21,Cc1ccccc1/C=C1\SC(=S)N(/N=C/c2cc([N+](=O)[O-])ccc2O)C1=O,inactive
22,COc1ccc(OC)c(Nc2nc(-c3ccccc3O)nc3ccccc23)c1,"inconclusive: 2.62 µM [inhibitor, full curve, poor fit]"
23,NC(=O)c1cnn(C2CCS(=O)(=O)C2)c1 (stereo not drawn),"inconclusive: 2.33 µM [inhibitor, partial curve, poor fit]"

row,Compound,Potency
1,C=CCn1c(SCc2nc3ccccc3[nH]2)nnc1-c1ccc(OC)cc1,"inconclusive: 5.86 µM [inhibitor, partial curve, poor fit]"
2,C=CCc1cc(OC)ccc1OCCOCCC(C(=O)OCC)C(=O)OCC,"inconclusive: 18.5 µM [inhibitor, single point]"
3,O=C1CCCN1CC(O)CS(=O)(=O)Cc1ccc(Cl)cc1Cl (stereo not drawn),"inconclusive: 2.62 µM [inhibitor, single point]"
4,Cc1ccc(C)c(C(=O)COC(=O)c2cc([N+](=O)[O-])ccc2N2CCOCC2)c1,active: 14.7 µM
5,O=C(C1CCN(S(=O)(=O)c2ccccc2)CC1)N1CCN(Cc2ccccc2)CC1,"inconclusive: 10.4 µM [inhibitor, single point]"
6,O=C1NC(c2cccs2)C(C(=O)c2ccccc2)C(O)(C(F)(F)F)N1 (stereo not drawn),inactive
7,COc1ccc(NC(=O)c2ccco2)cc1N,active: 8.28 µM
8,CCNC(=O)/C(C#N)=C/c1c(N2CCN(c3ccccc3)CC2)nc2c(C)cccn2c1=O,"inconclusive: 11.7 µM [inhibitor, single point]"
9,O=C(Nc1ccc(Cl)c(Cl)c1)N1N=CCC1c1ccccc1 (stereo not drawn),"inconclusive: 16.5 µM [inhibitor, single point]"
10,CCOc1ccccc1NC(=O)C1CCCN(S(=O)(=O)c2ccc(-n3cnnn3)cc2)C1 (stereo not drawn),"inconclusive: 18.5 µM [inhibitor, single point]"
11,CCOc1ccc(/C=N/NC(=O)C2CCCC2)c(OCC)c1,inactive
12,Cc1ccc(CN2CCNC(=O)C2CC(=O)O)cc1 (stereo not drawn),inactive
13,C[C@@H]1O[C@@H](Oc2c(-c3cc(O)c(O)c(O)c3)oc3cc(O)cc(O)c3c2=O)[C@H](O)[C@H](O)[C@H]1O,"inconclusive: 3.7 µM [inhibitor, single point]"
14,COc1ccc2oc(CS(=O)c3ccccc3)c(C(=O)O)c2c1 (stereo not drawn),"inconclusive: 4.15 µM [inhibitor, partial curve, poor fit]"
15,Cc1noc(NS(=O)(=O)c2ccc(N/C=C\C(=O)c3ccncc3)cc2)c1C,"inconclusive: 18.5 µM [inhibitor, single point]"
16,Cc1nnc(SCC(C)C)[nH]c1=O,"inconclusive: 9.28 µM [inhibitor, partial curve, poor fit]"
17,CC(C)C(=O)c1cc2c(cc1NC(=O)c1ccccc1)OCCO2,"inconclusive: 13.1 µM [inhibitor, single point]"
18,O=C(Cc1ccc([N+](=O)[O-])cc1)Nc1cccc(C(F)(F)F)c1,"inconclusive: 18.5 µM [inhibitor, single point]"
19,COc1ccc2c(c1)C(C)=CC(C)(C)N2C(=O)CN1C(=O)CCC1=O,"inconclusive: 11.7 µM [inhibitor, partial curve, poor fit]"
20,COCCNC(=O)[C@H]1C[C@@H]1[C@H](NP(=O)(c1ccccc1)c1ccccc1)c1ccccc1,"inconclusive: 16.5 µM [inhibitor, single point]"
21,CCOc1ccc(NC(=O)c2ccc(CC)s2)c([N+](=O)[O-])c1,"inconclusive: 0.0041 µM [inhibitor, partial curve, poor fit]"
22,CCOC(=O)C1C(=O)CC(C)(O)C(C(=O)OCC)C1c1ccccc1 (stereo not drawn),"inconclusive: 13.1 µM [inhibitor, single point]"
23,O=S(=O)(c1cnc[nH]1)N1CCN(c2ccc(F)cc2)CC1,inactive

row,Compound,Potency
1,O=Cc1c(NCc2ccco2)nc2ccccn2c1=O,inactive
2,COc1ccccc1C(=O)C1CCCN(C(=O)c2ccccn2)C1 (stereo not drawn),"inconclusive: 18.5 µM [inhibitor, single point]"
3,CCOC(=O)C1(c2ccccc2)CCN(CCC(=O)Nc2ccc(C(=O)OC)cc2)CC1,active: 9.28 µM
4,O=C(NCCc1ccccc1)c1ccc2c(=O)[nH]c3c(C(=O)NCC4CCCO4)sc(=S)n3c2c1 (stereo not drawn),"inconclusive: 18.5 µM [inhibitor, single point]"
5,CC1CCN(CCCN2C(=O)C3C(C(=O)Nc4ccc(Cl)cc4)C4C=CC3(O4)C2C(=O)NC2CCCCC2)CC1 (stereo not drawn),"inconclusive: 11.7 µM [inhibitor, single point]"
6,O=C(Nc1ccc(Cl)cc1)c1ccc(CN2CCc3ccccc3C2)cc1,"inconclusive: 0.522 µM [inhibitor, partial curve, poor fit]"
7,Cc1ccc(CN(Cc2cccnc2)C(=S)Nc2cc(Cl)ccc2C)cc1,"inconclusive: 14.7 µM [inhibitor, single point]"
8,O=[N+]([O-])c1ccc(S(=O)(=O)N2CCN(c3ccnc4cc(Cl)ccc34)CC2)cc1,active: 2.62 µM
9,O=[N+]([O-])c1ccccc1N/N=C/c1ccccc1,"inconclusive: 10.4 µM [inhibitor, single point]"
10,Brc1ccc(-c2nnc(Cc3ccccc3)o2)cc1,inactive
11,COc1ccc(-c2csc(NC(=S)NC(=O)c3cccs3)n2)cc1OC,"inconclusive: 10.4 µM [inhibitor, single point]"
12,CCOc1ccc(Oc2cc(N)cc([N+](=O)[O-])c2)cc1,"inconclusive: 5.22 µM [inhibitor, partial curve, poor fit]"
13,CN(C(=O)c1ccccc1F)C(c1ccccc1)c1ccccc1,"inconclusive: 9.28 µM [inhibitor, single point]"
14,Cn1c(=O)c(C(=O)COC(=O)c2cc(-c3ccco3)nc3ccccc23)c(N)n(Cc2ccccc2)c1=O,active: 6.57 µM
15,CC(=O)NCCc1nc2cc(NC(=O)c3cccs3)ccc2n1C,inactive
16,CCN(CC)c1ccc(/C=N/NC(=S)NCc2ccccc2)c(O)c1,"inconclusive: 3.29 µM [inhibitor, partial curve, poor fit]"
17,COc1ccc(OC)c(N=Cc2c(O)[nH]c3ccccc23)c1,inactive
18,COc1cccc2c1OCC(CN1CCN(CCC(C)C)C(CCO)C1)=C2 (stereo not drawn),"inconclusive: 18.5 µM [inhibitor, single point]"
19,O=S(=O)(/C=C/c1ccccc1)N1CCN(c2nc(-c3cccnc3)nc3ccccc23)CC1,"inconclusive: 4.15 µM [inhibitor, full curve, poor fit]"
20,COc1ccccc1N1CCN(C(=O)c2c(-c3ccccc3)noc2C)CC1,"inconclusive: 11.7 µM [inhibitor, partial curve, poor fit]"
21,COc1ccc(-c2cc(C(=O)NCCN3CCOCC3)c3cc(C(C)C)ccc3n2)cc1,"inconclusive: 10.4 µM [inhibitor, single point]"
22,CCCC(=O)OCCNc1cc(SCCC(=O)OC)c2nonc2c1[N+](=O)[O-],inactive

# Compounds listed so far that have a COOH group:
row,Compound,Potency
12,Cc1ccc(CN2CCNC(=O)C2CC(=O)O)cc1 (stereo not drawn),inactive
14,COc1ccc2oc(CS(=O)c3ccccc3)c(C(=O)O)c2c1 (stereo not drawn),"inconclusive: 4.15 µM [inhibitor, partial curve, poor fit]"
